Literature values in patent publication US20150297661A1, “ANALGESIC COMPOSITIONS AND METHODS OF USE” (priority 2014, published 2015).

Conditions: depending on the site of administration

Structure (SMILES): CCN(CC)CC(=O)Nc1c(C)cccc1C [Lidocaine]
- onset of anesthesia: within a few minutes
